Consider 1 compound from patent US7253286B2, “Nitrogen-containing aromatic derivatives” (Eisai Co., Ltd, priority 2000, dated 2007).

Amino acid sequences for entries named in this document (tags omitted). Residues count along the entry.
UniProt P35968, 786-1356 limits assumed: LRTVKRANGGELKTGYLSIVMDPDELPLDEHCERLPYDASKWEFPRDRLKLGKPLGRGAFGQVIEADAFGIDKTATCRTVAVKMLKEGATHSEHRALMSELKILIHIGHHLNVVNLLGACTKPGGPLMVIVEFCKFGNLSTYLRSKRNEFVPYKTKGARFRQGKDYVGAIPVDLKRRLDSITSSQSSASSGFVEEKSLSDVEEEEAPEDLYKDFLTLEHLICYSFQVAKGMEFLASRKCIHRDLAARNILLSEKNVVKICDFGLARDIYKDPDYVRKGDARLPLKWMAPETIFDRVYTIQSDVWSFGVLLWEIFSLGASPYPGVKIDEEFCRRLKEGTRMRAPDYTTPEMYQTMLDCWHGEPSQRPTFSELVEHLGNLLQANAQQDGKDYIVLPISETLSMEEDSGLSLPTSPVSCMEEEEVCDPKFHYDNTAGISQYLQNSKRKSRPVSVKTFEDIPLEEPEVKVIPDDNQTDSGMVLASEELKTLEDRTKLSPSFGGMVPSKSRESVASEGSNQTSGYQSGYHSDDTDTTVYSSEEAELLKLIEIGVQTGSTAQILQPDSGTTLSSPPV

The match of structure and compound is tentative.

The target of the assay is VEGFR2 (Homo sapiens, UniProt P35968). Briefly: Inhibition against VEGFR2 kinase (receptor tyrosine kinase activity, HTRF method). Particulars: read-out: IC50 (concentration required for 50% inhibition of VEGFR2 kinase activity), His6-VEGFR2 cytoplasmic domain, biotin-poly(GT) substrate, ATP, 30° C. 10 minutes. In kind it is biochemical. Here is the method:
Measurement of Inhibition Against Receptor Tyrosine Kinase Activity
This assay is used to determine inhibition of a test substance on tyrosine kinase activity. DNA coding for the cytoplasmic domain of VEGFR2 is obtained by total cDNA synthesis (Edwards M, International Biotechnology Lab 5(3), 19–25, 1987) or by cloning. Expression in an appropriate expression system can produce a polypeptide with tyrosine kinase activity. […]
The supernatant was added to a Ni—NTA agarose column (3 ml, purchased from Qiagen) equilibrated with Buffer A {20 mM Tris-HCl (pH 8.5), 5 mM 2-mercaptoethanol, 500 mM KCl, 20 mM imidazole, 10% (v/v) glycerol}. […] After dialysis, it was supplied for SDS-electrophoresis, and the recombinant protein (His6-VEGFR2, cytoplasmic domain of VEGFR2 fused with 6 histidine residues at the N-terminus) detected at a molecular weight of approximately 100 kDa with Coumassie Brilliant Blue staining was assayed using BSA (bovine serum albumin, purchased from Sigma Co.) as the standard substance, and stored at −80° C. until use. […]

On to `CCN(CC)CCCOc1cc2nccc(Oc3ccc(NC(=O)Nc4ccc(OC)cc4)cc3)c2cc1C#N`, for which the IC50 was 18 nM.
